In PMC7862700:
The entries are a selection whose mix differs from that of the whole data set. At the low end of the ranking, values are background and their order means little.

target: SPI1 (UniProt P17947); assay: DAPPL (digital affinity profiling via proximity ligation, sequencing); settings: 10 mM Tris-HCl pH 7.5, 50 mM NaCl, 1 mM DTT, 4% glycerol, room temperature, 30 min; GST-TFs on glutathione beads, 16-mer random dsDNA library, 0.1% …; high values mean tight binding; double strand, one strand shown; scale: fold enrichment (6-mer frequency, TF over GST control)

Sequence | binding signal
TAACCG | 0.976
AGAAGA | 0.894
ACACGC | 0.969
GTCCAA | 0.948
GATAAG | 0.861
AGGTGT | 0.82
TCTGTA | 1.16
TTGGAA | 0.972
TCAGAC | 0.894
TGGCGC | 0.943
AACCCC | 1.12
AGGATT | 0.85
TCGAGA | 0.593
CCTAGG | 0.929
TGTTAG | 0.84
GACTAT | 0.929
CGCACG | 0.937
TGCGCC | 1.22
CGAGTA | 0.878
CGCACC | 0.877

Some of the entries above in another layout.

| Sequence | binding signal |
| --- | --- |
| AGGTGT | 0.82 |
| TCTGTA | 1.16 |
| TTGGAA | 0.972 |
| TCAGAC | 0.894 |
| TGGCGC | 0.943 |
| AACCCC | 1.12 |
| AGGATT | 0.85 |
| TCGAGA | 0.593 |
| CCTAGG | 0.929 |
| TGTTAG | 0.84 |

The listing continues:

Sequence | binding signal
TTAGGC | 0.941
CGAGAA | 0.817
GTATGG | 1.06
CAGTAT | 0.929
AGCTAT | 1.15
TACGCG | 1.12
CCCTTC | 1.52
GCGTTT | 1.05
CTGTCT | 1.33
TCCGTC | 1.28
CACTGA | 0.996
ATGGGA | 1
TCTAGA | 0.98
TAAGGA | 0.978
GGCTAA | 0.979
CCAATA | 1.2
TTCGAG | 1.21
CGGCAC | 0.985
AGCATG | 0.907
